The source of these data is article PMC6277416.

Sequences of proteins named here, by UniProt entry; tags and fusion partners are left off.
UniProt Q8R3S6: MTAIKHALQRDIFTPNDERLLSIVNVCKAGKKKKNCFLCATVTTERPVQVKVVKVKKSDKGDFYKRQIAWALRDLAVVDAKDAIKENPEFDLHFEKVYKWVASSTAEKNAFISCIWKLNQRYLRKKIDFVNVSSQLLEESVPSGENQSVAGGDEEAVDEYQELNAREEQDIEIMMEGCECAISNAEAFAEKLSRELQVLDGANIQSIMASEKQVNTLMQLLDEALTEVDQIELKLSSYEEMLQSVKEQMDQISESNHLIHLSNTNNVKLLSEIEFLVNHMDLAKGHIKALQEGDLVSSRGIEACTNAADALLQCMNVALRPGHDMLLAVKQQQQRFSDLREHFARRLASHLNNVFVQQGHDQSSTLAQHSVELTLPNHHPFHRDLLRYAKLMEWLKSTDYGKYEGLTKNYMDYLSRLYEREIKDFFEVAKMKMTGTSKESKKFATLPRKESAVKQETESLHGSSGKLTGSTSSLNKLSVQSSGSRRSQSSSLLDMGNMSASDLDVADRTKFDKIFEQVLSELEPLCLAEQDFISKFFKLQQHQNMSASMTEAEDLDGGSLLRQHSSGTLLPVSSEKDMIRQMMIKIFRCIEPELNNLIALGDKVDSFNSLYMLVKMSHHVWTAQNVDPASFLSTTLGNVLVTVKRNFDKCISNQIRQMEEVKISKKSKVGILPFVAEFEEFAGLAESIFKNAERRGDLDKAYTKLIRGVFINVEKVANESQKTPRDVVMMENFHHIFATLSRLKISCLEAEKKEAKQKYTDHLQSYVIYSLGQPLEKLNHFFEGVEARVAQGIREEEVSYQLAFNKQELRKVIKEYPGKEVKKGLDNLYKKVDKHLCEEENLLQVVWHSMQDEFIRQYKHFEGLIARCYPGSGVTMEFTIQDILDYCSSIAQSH
UniProt Q9D4H1: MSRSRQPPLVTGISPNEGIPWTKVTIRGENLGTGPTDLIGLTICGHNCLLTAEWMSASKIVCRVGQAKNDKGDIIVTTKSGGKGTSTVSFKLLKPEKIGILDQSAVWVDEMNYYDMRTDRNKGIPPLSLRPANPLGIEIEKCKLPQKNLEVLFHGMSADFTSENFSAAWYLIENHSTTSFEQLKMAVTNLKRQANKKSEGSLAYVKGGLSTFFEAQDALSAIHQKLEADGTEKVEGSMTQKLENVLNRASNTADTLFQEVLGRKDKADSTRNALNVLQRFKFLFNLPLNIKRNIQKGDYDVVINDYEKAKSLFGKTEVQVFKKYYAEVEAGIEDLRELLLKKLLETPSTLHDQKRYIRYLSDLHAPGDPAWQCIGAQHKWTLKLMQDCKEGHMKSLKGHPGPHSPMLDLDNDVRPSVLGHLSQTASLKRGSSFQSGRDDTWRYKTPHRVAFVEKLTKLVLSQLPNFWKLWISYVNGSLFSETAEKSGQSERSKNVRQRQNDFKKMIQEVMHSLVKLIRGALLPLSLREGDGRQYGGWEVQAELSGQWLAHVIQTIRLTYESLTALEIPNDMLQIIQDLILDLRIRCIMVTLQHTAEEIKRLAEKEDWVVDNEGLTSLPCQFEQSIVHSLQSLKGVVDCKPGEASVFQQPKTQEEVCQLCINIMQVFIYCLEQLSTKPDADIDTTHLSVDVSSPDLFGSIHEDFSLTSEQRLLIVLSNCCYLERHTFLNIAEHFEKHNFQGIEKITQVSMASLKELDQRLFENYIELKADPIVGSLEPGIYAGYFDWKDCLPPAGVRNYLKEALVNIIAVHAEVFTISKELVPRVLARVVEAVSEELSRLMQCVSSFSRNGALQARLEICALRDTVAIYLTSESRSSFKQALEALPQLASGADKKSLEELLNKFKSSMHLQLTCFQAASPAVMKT
UniProt O35250: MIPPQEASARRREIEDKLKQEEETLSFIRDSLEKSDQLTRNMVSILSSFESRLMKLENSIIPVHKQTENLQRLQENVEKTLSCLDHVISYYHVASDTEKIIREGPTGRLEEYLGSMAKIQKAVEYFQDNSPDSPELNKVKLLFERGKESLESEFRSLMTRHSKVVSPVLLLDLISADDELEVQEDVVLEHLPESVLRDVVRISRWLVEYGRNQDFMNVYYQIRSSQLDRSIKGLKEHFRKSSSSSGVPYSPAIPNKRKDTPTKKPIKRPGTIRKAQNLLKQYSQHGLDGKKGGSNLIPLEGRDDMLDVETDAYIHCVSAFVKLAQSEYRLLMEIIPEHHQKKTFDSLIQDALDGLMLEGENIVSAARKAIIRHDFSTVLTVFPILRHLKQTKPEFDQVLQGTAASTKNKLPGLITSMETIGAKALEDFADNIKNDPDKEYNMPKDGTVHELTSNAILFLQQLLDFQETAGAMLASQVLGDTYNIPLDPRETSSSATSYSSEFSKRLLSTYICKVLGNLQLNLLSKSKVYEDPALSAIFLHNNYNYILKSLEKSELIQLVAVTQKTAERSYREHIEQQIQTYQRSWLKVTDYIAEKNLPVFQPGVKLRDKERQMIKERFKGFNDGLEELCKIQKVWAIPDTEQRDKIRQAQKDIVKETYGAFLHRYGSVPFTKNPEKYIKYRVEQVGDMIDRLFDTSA
UniProt O35382: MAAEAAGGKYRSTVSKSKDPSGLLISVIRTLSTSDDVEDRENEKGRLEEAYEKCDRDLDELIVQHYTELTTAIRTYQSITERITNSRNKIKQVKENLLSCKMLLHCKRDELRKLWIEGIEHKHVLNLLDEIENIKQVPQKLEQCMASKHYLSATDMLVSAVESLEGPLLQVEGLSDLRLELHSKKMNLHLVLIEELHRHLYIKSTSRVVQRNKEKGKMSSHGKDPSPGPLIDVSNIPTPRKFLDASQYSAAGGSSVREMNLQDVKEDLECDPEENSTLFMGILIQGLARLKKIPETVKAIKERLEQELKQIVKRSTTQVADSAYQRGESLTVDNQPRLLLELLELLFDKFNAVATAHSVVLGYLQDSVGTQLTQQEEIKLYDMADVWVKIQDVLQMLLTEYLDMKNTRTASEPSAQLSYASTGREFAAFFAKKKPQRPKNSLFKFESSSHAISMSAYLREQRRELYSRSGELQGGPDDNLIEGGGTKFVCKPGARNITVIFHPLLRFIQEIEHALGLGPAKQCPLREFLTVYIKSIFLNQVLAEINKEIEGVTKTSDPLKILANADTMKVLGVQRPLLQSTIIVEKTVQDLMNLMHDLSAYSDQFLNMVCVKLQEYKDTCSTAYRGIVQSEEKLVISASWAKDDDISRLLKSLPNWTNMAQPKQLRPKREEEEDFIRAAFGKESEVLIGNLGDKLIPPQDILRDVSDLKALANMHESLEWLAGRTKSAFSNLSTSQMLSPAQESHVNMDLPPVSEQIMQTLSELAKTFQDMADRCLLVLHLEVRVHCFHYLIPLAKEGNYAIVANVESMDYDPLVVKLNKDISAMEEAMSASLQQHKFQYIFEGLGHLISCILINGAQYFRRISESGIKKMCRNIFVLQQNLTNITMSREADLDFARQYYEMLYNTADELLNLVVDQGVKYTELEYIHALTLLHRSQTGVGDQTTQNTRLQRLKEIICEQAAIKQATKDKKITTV
UniProt Q6KAR6: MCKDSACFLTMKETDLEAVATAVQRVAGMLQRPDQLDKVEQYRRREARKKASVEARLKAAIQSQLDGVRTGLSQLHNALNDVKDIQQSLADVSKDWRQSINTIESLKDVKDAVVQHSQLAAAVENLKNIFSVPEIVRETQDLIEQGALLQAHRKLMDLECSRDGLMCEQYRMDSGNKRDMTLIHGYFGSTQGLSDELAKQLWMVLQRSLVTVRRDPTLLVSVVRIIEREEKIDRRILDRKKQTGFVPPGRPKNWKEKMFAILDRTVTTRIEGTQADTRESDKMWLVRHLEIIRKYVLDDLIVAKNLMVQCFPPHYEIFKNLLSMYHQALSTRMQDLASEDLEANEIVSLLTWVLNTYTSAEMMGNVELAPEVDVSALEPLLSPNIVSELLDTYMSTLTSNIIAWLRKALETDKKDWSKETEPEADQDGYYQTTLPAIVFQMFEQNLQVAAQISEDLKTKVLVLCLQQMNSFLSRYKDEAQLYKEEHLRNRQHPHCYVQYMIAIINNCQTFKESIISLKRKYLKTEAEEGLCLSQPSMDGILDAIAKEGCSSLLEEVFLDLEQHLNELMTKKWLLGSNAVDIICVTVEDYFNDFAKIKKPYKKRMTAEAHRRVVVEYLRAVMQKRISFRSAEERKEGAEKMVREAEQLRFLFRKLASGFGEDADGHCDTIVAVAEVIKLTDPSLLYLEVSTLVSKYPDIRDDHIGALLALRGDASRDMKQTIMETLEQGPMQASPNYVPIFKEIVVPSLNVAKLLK

Assay in all cases: affinity purification with mass spectrometry; GFP-Trap_MA beads on lysates of EXO70-GFP, SEC3-GFP or SEC5-GFP knock-in NMuMG cells (20 mM HEPES pH 7.4, 50 mM NaCl, 2 mM EDTA, 0.1% Triton X-100, 4 °C, 30 min), LC-MS/MS; for EXO70-GFP also quantitative full-scan LC-MS/MS from intact or SEC8-shRNA cells (SC2 subunits still recovered)
Experiment [1] addresses SEC3-GFP (mouse (endogenous in NMuMG)) (UniProt Q8R3S6).
Experiment [2] has as its target SEC5-GFP (mouse (endogenous in NMuMG)) (UniProt Q9D4H1).
Experiment [3] has as its target EXO70-GFP (mouse (endogenous in NMuMG)) (UniProt O35250).
Experiment [4] has as its target SEC5-GFP (mouse (endogenous in NMuMG)) (UniProt Q9D4H1). This is another data set of the same source.
Experiment [5] deals with SEC3-GFP (mouse (endogenous in NMuMG)) (UniProt Q8R3S6). This is another data set of the same source.

Read-outs that look alike come from different tables or passages of the source. Results are given in words; binding and its absence hold for the method and conditions named. Binding seen in cells or lysates may run through a third protein. Here binding means that the protein was enriched with, or labelled near, the bait; the list need not be complete. For some assays here: A no says only that the protein was not detected with the bait.

With SEC5 (from UniProt Q9D4H1 1-924), the binding entry in experiment [1] is recorded as “binds”.

With SEC8 (from UniProt O35382 1-975), the binding result in experiment [1] and in experiment [2] was “binds” each time.

Take SEC6 (from UniProt Q6KAR6 1-755): the binding result in experiment [1] and in experiment [2] was “binds” in each case.

Turning to SEC3 (from UniProt Q8R3S6 1-894), the binding entry in experiment [2] is reported as “binds”.

B1: SNAP23 (protein, UniProt O09044 1-210)
chain: MDNLSPEEVQLRAHQVTDESLESTRRILGLAIESQDAGIKTITMLDEQGEQLNRIEEGMDQINKDMREAEKTLTELNKCCGLCICPCNRTKNFESGKNYKATWGDGGDNSPSNVVSKQPSRITNGQPQQTTGAASGGYIKRITNDAREDEMEENLTQVGSILGNLKNMALDMGNEIDAQNQQIQKITEKADTNKNRIDIANTRAKKLIDS
In the case of B1, the binding entry is listed as “binds” in experiment [3] and “no binding” in experiment [4].

B2: RALB (protein, UniProt Q9JIW9 1-206)
chain: MAANKGKSQGSLVLHKVIMVGSGGVGKSALTLQFMYDEFVEDYEPTKADSYRKKVVLDGEEVQIDILDTAGQEDYAAIRDNYFRSGEGFLLVFSITEHESFTATAEFREQILRVKSEEDKIPLLVVGNKSDLEERRQVPVDEARGKAEEWGVQYVETSAKTRANVDKVFFDLMREIRAKKMSENKDKNGRKSSKSKKSFKERCCLL
B2: the binding entry in experiment [3], in experiment [5] and in experiment [4] was “binds” in each case.

B3: RALA (protein, UniProt P63321 1-206)
chain: MAANKPKGQNSLALHKVIMVGSGGVGKSALTLQFMYDEFVEDYEPTKADSYRKKVVLDGEEVQIDILDTAGQEDYAAIRDNYFRSGEGFLCVFSITEMESFAATADFREQILRVKEDENVPFLLVGNKSDLEDKRQVSVEEAKNRADQWNVNYVETSAKTRANVDKVFFDLMREIRARKMEDSKEKNGKKKRKSLAKRIRERCCIL
Consider B3, for which the binding entry in experiment [3], in experiment [5] and in experiment [4] was “binds” throughout.
